* marks the point of attachment. Boc = CC(C)(C)OC(=O)*
Test: general procedure: solution-phase peptide synthesis; DCC/HOSu; HATU/NMM; ClOCOiBu/NMM
Conditions: coupling step

In order of falling step yield:
1. Boc-Phe-Ada-Met-Met-Met-OH  63%
2. Boc-FAMM-OH  54%
3. Boc-FGMMM-OH  45%
4. Boc-FAMMM-OH  19%
5. Boc-Y(Boc)AMMM-OH  19%

Same assay, conditions: late stage modification step

In order of rising step yield:
1. H-Phe-Ada-Met(O)-Met(O)-Met(O)-OH  30%
2. H-Phe-Ala-Met-Met-OH  34%

Test: peptide synthesis
Conditions: late stage modification step

In order of rising step yield:
1. H-Phe-Gly-Met-Met-Met-OH  20%
2. H-Tyr-Ala-Met-Met-Met-OH  24%
3. H-Phe-Ala-Met-Met-Met-OH  25%

Source: publication PMC3257078 (International Journal of Molecular Sciences, 2011)
